These are yes or no findings as the source states them, for the method shown. Binding seen in cells or lysates may run through a third protein. Some results given as binding are weak or reduced against the parent protein; the word gives no strength. Sequences can lack the tags named with a protein.
B1: GFP-tagged METTL14 (CG7818) (protein, UniProt Q9VLP7 1-397)
chain: MSDVLKSSQERSRKRRLLLAQTLGLSSVDDLKKALGNAEDINSSRQLNSGGQREEEDGGASSSKKTPNEIIYRDSSTFLKGTQSSNPHNDYCQHFVDTGQRPQNFIRDVGLADRFEEYPKLRELIKLKDKLIQDTASAPMYLKADLKSLDVKTLGAKFDVILIEPPLEEYARAAPSVATVGGAPRVFWNWDDILNLDVGEIAAHRSFVFLWCGSSEGLDMGRNCLKKWGFRRCEDICWIRTNINKPGHSKQLEPKAVFQRTKEHCLMGIKGTVRRSTDGDFIHANVDIDLIISEEEEFGSFEKPIEIFHIIEHFCLGRRRLHLFGRDSSIRPGWLTVGPELTNSNFNSELYQTYFAEAPATGCTSRIELLRPKSPPPNSKVLRGRGRGFPRGRGRPR
B2: GFP-tagged Fl(2)d (Drosophila WTAP ortholog) (protein, UniProt Q9Y091 1-536)
chain: MSVAAMTMDDQRPCMNSYDKMPPTKYEQNLNILNSSQNSGATGGPASPTPSGLEDHHHHHHPHPHHHHHQEQQQQQQQQQHLQQQQQQQQQQHAAAVAEAVAAAEQRQRLLEDEIENLKLEQVRMAQQCADAQRREKILMRRLANKEQEFQDYVSQIAEYKAQQAPTALALRTALLDPAVNLLFERLKKELKATKAKLEETQNELSAWKFTPDSNTGKRLMAKCRLLYQENEELGKMTSNGRLAKLETELAMQKSFSEEVKKSQSELDDFLQELDEDVEGMQSTILFLQQELKTTRDRIQTLEKENAQLKQAIKDEVVAPAAATNGGTNTTINKLETIHEDACMANNPTNPDCYNGNTNNEQIAAVPQIPLSDDGSNMNGNAARLARKRNYQEEEALPTVVVVPTPTPVGNNVQEAPPIREVTAPRTLPPKKSKLRGITTRRNSQLEEDHQPVTTPVAVPMIVDNAVAGMASEEAAAAAAAVNNSNTGIIPETGVQVGVPVEGGDPGAPAAPGRILTRRRSVRMQQNGSGAVDYST
B3: Fl(2)d (Drosophila WTAP ortholog), prey of the GFP-Nito pulldown (protein, UniProt Q9Y091 1-536)
chain: B2 chain

Chains of the proteins cited; added tags and fusions are not shown.
UniProt Q9VCE6: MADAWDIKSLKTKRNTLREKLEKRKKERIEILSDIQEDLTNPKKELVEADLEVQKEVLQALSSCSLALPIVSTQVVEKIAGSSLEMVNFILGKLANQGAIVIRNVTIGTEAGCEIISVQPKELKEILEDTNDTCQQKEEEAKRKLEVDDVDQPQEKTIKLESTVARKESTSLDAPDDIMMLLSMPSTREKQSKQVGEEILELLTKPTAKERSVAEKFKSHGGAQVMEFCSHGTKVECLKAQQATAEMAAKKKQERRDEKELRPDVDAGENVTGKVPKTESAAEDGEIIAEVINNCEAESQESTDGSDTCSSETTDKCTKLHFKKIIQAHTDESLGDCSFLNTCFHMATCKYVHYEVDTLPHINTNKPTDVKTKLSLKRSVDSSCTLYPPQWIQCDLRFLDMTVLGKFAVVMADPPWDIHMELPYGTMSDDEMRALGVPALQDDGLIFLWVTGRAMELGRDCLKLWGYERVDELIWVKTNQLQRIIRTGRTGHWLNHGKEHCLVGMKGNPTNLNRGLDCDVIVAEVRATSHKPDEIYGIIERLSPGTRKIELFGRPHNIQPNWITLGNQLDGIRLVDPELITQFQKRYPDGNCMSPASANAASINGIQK

Legend:
[1] = target: T1, HA-tagged METTL14 (CG7818) (Drosophila) (UniProt Q9VLP7); experiment: co-IP; HA-tagged IME4 or METTL14 (0.5 ug) and a GFP-tagged construct (1.5 ug) co-transfected into S2 cells, 3 days; lysis in 10 mM Tris-HCl pH 7.5, 300 mM NaCl, 1 mM EDTA, 1% Triton X-100; cleared lysate on HA antibody (F-7) beads 2 h; five washes with 500 mM NaCl buffer; blotting for associated proteins
T1 sequence: B1 chain

[2] = target: HA-tagged IME4 (Drosophila METTL3 ortholog, CG5933) (Drosophila) (UniProt Q9VCE6); experiment: as above
[3] = target: T2, GFP-Nito (Spenito, Drosophila RBM15/RBM15B ortholog) (Drosophila) (UniProt Q7KMJ6); experiment: co-IP; GFP-Nito pulldown from transfected S2 cells, 2 days; lysis in 50 mM Tris pH 7.4, 150 mM NaCl, 1% NP-40; GFP-Trap beads 2 h at 4 C; two washes with lysis buffer; blotting for associated proteins
T2 sequence: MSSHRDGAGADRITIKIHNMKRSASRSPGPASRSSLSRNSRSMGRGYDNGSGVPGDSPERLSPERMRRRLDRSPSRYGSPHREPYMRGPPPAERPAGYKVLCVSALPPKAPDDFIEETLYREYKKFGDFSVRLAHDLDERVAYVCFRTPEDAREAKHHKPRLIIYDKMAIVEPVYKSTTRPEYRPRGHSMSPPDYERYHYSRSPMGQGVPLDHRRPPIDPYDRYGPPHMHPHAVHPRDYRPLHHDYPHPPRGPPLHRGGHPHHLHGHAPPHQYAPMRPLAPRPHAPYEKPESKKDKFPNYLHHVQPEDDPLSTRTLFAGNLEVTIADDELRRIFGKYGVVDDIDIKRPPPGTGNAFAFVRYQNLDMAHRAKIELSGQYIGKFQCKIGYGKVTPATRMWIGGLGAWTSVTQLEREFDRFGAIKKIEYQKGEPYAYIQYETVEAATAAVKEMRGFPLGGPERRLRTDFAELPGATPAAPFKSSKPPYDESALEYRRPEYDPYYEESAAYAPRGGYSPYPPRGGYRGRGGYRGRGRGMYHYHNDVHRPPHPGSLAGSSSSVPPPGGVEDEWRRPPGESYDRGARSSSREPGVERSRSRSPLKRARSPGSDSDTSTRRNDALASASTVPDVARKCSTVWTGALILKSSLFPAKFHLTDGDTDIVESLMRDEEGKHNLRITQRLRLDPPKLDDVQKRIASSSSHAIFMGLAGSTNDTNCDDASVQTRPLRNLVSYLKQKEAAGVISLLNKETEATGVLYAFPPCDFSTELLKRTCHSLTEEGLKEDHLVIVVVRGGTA

| Molecule | binding [1] | binding [2] | binding [3] |
| --- | --- | --- | --- |
| GFP-tagged IME4 (Drosophila METTL3 ortholog, CG5933) (from UniProt Q9VCE6 1-608) | binds |  |  |
| B1 |  | binds |  |
| B2 | binds weakly | binds weakly |  |
| B3 |  |  | binds |
